{
  "source": "patent US7723301B2",
  "about": "“Pharmaceutical compositions comprising an anti-teratogenic compound and applications of the same” (The Board of Trustees of the University of Arkansas, priority 2007, dated 2010)",
  "system": "primary limb bud cells (PLBCs)",
  "test": "Cell death by trypan blue staining in PLBCs",
  "type": "cell-based, chicken",
  "settings": "juglone 5 μM, two hours",
  "experimental": "Primary limb bud cells (PLBCs) were isolated from 60 pooled wing and hindlimb buds of HH stages 23/24 embryos. Fibroblasts were gained from HH stage 34 chicken embryos or from 13.5 d.p.c. mouse embryos. Human embryonic fibroblasts were provided by Matthias Maass (2). Before adding reagents, all cell types were cultured for 16 hours in D-MEM (Gibco) plus 10% fetal calf serum (FCS) and 2% chicken serum. Treatment with thalidomide, phthalimide, recombinant human (rh) BMP4 (300 ng/ml; R&D Systems), juglone (5 μM; Sigma), recombinant mouse Noggin (30, 300, 1000 ng/ml in FIG. 4B; 300 ng/ml in FIGS. 4C and 6A), anti-human-DKK1 antibody (35, 350 and 1000 ng/ml in FIG. 4B; 350 ng/ml in FIGS. 4C and 6A), LiCl (3, 30, 60 mM in FIG. 4B; 30 mM in FIGS. 4C, 6A and 6C) and/or (2Z,3E)-6-Bromoindirubin-3-oxime (BIO, Gsk3-Inhibitor IX; 50, 500, 1000 nM in FIG. 4B; 500 nM in FIG. 6A; 50 and 500 nM in FIG. 6C; Calbiochem) were performed in Optimem1 (Invitrogen) plus 1% FCS. Unless otherwise noted, all treatments with thalidomide and rh-BMP4 and associated controls were done for six hours. […]\nCell death in PLBCs, CEFs, MEFs and HEFs was detected by staining with trypan blue (0.1% (w/v) in PBS; Sigma) for 90 seconds. Cells were counted in a counting chamber to determine the ratio of dead to live cells.",
  "note": "At least one compound was matched to its structure with a doubt left.",
  "data": [
    {"compound": "O=C1C=CC(=O)c2c(O)cccc21", "note": "[juglone]", "values": [
      {"measurement": "cell death in PLBCs", "result": "provokes increased cell death"}
    ]}
  ]
}
